# Results from one PubChem assay

The results are deposited in PubChem (AID504749; NCATS, 2011).

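Malaria parasite (P. falciparum) lines kept in red blood cells; parasite DNA is measured by SYBR Green fluorescence after lysis, 72 h after compound addition. Each compound was titrated across a series from about 0.000037 to 29 µM. The number is the fitted AC50, the concentration giving a half-maximal change in signal; a lower value means higher potency, whether the curve shows a decrease or an increase. Calls follow the curve class and fit quality: every row here is inconclusive, covering signal-raising curves and weak, poorly fitted, partial or highest-dose-only inhibition curves.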

Values are in nM. Every entry below has the call inconclusive. These entries are mostly ones the record files as inconclusive; other results of the assay are not listed here. Potencies fitted to partial, single-point or poorly fitting curves are rough. Some entries filed as inconclusive have a full curve.

For C=C1CCC2[C@](C)(CO)C(O)CC[C@]2(C)C1C/C=C1/C(=O)OCC1O (some centres unmarked) [DIV14] the result was Potency 13459 nM (inhibitor, partial curve, poor fit). C=C1CCC2[C@](C)(CO)C(O)CC[C@]2(C)C1C/C=C1/C(=O)OCC1O (some centres unmarked) [CP217] gave Potency 11220 nM (inhibitor, single point). For C=C1CCC2[C@](C)(CO)C(O)CC[C@]2(C)C1C/C=C1/C(=O)OCC1O (some centres unmarked) [AA1029] the result was Potency 19952 nM (inhibitor, single point). C=C1CCC2[C@](C)(CO)C(O)CC[C@]2(C)C1C/C=C1/C(=O)OCC1O (some centres unmarked) [CP252] gave Potency 12589 nM (inhibitor, single point). C=C1CCC2[C@](C)(CO)C(O)CC[C@]2(C)C1C/C=C1/C(=O)OCC1O (some centres unmarked) [CP237] read Potency 7943 nM (inhibitor, partial curve, poor fit). With C=C1CCC2[C@](C)(CO)C(O)CC[C@]2(C)C1C/C=C1/C(=O)OCC1O (some centres unmarked) [W2] the assay gave Potency 19 nM (inhibitor, full curve). C=C1CCC2[C@](C)(CO)C(O)CC[C@]2(C)C1C/C=C1/C(=O)OCC1O (some centres unmarked) [CP286] gave Potency 17782 nM (inhibitor, single point). C=C1CCC2[C@](C)(CO)C(O)CC[C@]2(C)C1C/C=C1/C(=O)OCC1O (some centres unmarked) [N140] gave Potency 14125 nM (inhibitor, single point).

Result for C=C1CCC2[C@](C)(CO)C(O)CC[C@]2(C)C1C/C=C1/C(=O)OCC1O (some centres unmarked) [TAB109] was Potency 14125 nM (inhibitor, single point). C=C1CCC2[C@](C)(CO)C(O)CC[C@]2(C)C1C/C=C1/C(=O)OCC1O (some centres unmarked) [CP305] read Potency 19011 nM (inhibitor, partial curve, poor fit). With C=C1CCC2[C@](C)(CO)C(O)CC[C@]2(C)C1C/C=C1/C(=O)OCC1O (some centres unmarked) [C2A] the assay gave Potency 12589 nM (inhibitor, single point). C=C1CCC2[C@](C)(CO)C(O)CC[C@]2(C)C1C/C=C1/C(=O)OCC1O (some centres unmarked) [CP191] gave Potency 14125 nM (inhibitor, single point). With O=C(c1cc2ccccc2o1)N1CCN(Cc2ccccc2)CC1 [N140] the assay gave Potency 17782 nM (inhibitor, single point). Result for O=C(c1cc2ccccc2o1)N1CCN(Cc2ccccc2)CC1 [CP247] was Potency 8912 nM (inhibitor, partial curve). With O=C(c1cc2ccccc2o1)N1CCN(Cc2ccccc2)CC1 [CP329] the assay gave Potency 13459 nM (inhibitor, partial curve).

For reference, 2 entries once more:

{"smiles": "C=C1CCC2[C@](C)(CO)C(O)CC[C@]2(C)C1C/C=C1/C(=O)OCC1O", "stereo": "some centres unmarked", "tested on / at": "CP217", "Potency (nM)": "11220", "remark": "inhibitor, single point"}
{"smiles": "O=C(c1cc2ccccc2o1)N1CCN(Cc2ccccc2)CC1", "tested on / at": "N140", "Potency (nM)": "17782", "remark": "inhibitor, single point"}